The results in this text go back to PMC12582035.

For one data set, the system named is AcMYC2L2. Kind of data set: EMSA. Particulars: text names AcMYC2L1/L2, legend only L1; EMSA/Gel-Shift Kit (Beyotime), native PAGE; pH and temperature not stated; recombinant protein; protein details: His. (In general: In EMSA bound probe runs differently from free probe, usually more slowly.)
A further data set concerns AcMYC2L1. As to the kind of experiment: EMSA. Particulars: EMSA/Gel-Shift Kit (Beyotime), native PAGE, pH and temperature not stated, recombinant protein, protein details: His.
[1] abbreviates: unlabeled competitor 1x, 10x, 50x.
The mark [2] stands for this setting: plus His-AcJAZ2L2 protein, which AcVSP2L1 probe not stated.

For at least one entry, the source does not settle the construct or the ends of the probe. For part of these data: A weaker result is weaker than the reference pair of the same experiment. At least one verdict rests on a figure or table, not on a statement of the authors.

Regarding “CGTTAGATTAATTCAAATGAATTTTAACCGTAGA (double strand) [AcVSP2L2pro probe]”, the results for the binding result in the data set with AcMYC2L2, in the data set on AcMYC2L1 (plus His-AcJAZ2L2 protein) and in the data set with AcMYC2L1 (setting [1]) were “binds”, “binds more weakly” and “binds”, respectively.
Turning to “TGGATTTTTTTACACACGTGCTTCAAATTGTTAAAG (double strand) [AcVSP2L1pro probe 1]”, the binding result is reported as “binds” in the data set with AcMYC2L2, “binds more weakly” in the data set with AcMYC2L1 (setting [2]) and “binds” with AcMYC2L1 (setting [1]).
Consider “TTATATATAAGACACATGAAGGATCGATTTCGAC (double strand) [AcVSP2L1pro probe 2]”, for which the binding result is reported as “binds” in the data set with AcMYC2L2, “binds more weakly” in the data set with AcMYC2L1 (setting [2]) and “binds” in the data set with AcMYC2L1 (setting [1]).
